Test results from patent publication US20050032149A1, “Enzyme catalyzed isotope labeling” (priority 2003, published 2005).
The name of at least one read-out is uncertain.

Chains of the proteins cited; added tags and fusions are not shown. Residues count along the entry.
UniProt P00761, 9-231: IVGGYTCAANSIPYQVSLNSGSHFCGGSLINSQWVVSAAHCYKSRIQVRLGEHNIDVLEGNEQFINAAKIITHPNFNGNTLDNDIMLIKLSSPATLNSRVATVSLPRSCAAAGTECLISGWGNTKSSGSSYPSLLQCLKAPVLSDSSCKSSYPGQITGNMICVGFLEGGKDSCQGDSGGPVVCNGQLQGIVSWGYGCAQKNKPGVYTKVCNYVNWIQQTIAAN

Biological target: T1, trypsin (Sus scrofa, UniProt P00761)
T1 construct: purchased Promega (Madison, Wis.)
Assay: Simultaneous kinetic study of 16O-to-18O exchange of a peptide mixture catalyzed by trypsin
Assay type: biochemical
Details: multiplexed peptide mixture, 36 nM trypsin, pH 7.0, 10% DMSO; YGGFMK as internal standard

**Q.** How did the kcat/KM turn out when ALELFR was run?
**A.** Its kcat/KM is 1.1±0.2 μ^−1min^−1.

**Q.** YGGFLK was tested. Which kcat/KM did it give?
**A.** The kcat/KM was 0.089 ± 0.006 µM⁻¹ min⁻¹.
